Construct, isoform or probe ends are uncertain for at least one entry. Where cells or extracts were used, other partners may take part. For some assays here: No signal at the amounts used counts as a negative. For some assays here: Weaker means in comparison with the reference protein, sequence or condition of that experiment. For some assays here: At least one verdict was read from the data and is not stated in words by the source.
Experiments:
[1] = test system: LBC (Large Boundary Complex, ~1000 kD, contains GAF, Clamp, Mod(mdg4)); assay: competition with a labelled probe; settings: 20 ul, nuclear extract from 6-18 hr embryos (1-3 ul), ~10 fmol/ul probe stock, 0.1-0.25 mg/ml poly(dA-dT):poly(dA-dT), 30 min at room temperature, gel at 4 C, protein in an extract
[2] = test system: LBC (Large Boundary Complex, ~1000 kD, contains GAF, Clamp, Mod(mdg4)); assay: EMSA; settings: 20 ul, nuclear extract from 6-18 hr embryos (1-3 ul), ~10 fmol/ul probe stock, 0.1-0.25 mg/ml poly(dA-dT):poly(dA-dT), 30 min at room temperature, gel at 4 C, protein in an extract
[3] = test system: GAF + Clamp + Mod(mdg4); assay: EMSA supershift; settings: gel filtration fractions 45 and 47, GAF and Mod(mdg4) antibodies supershift, Clamp antibody inhibits; 20 ul, nuclear extract from 6-18 hr embryos (1-3 ul), ~10 fmol/ul probe stock, 0.1-0.25 mg/ml poly(dA-dT):poly(dA-dT), 30 min at room temperature; gel at 4 C; protein in an extract; label: 5'-32P (unlabeled as competitor)
[4] = 25x-100x cold against labeled HS3, label: 5'-32P (unlabeled as competitor)
[5] = fold weaker than G3+4, label: 5'-32P

Sequence: CAAAGAGCGACACGTGAACAGGTGCAGTAGTAAATATAAGCAAAGAGAGTTGGAAAGAGTATTGGGGCACCCCAGGCTTTACACTTTATGCTTCCGGCTCGTATGTTGTGTGGAATTGTGAGCGGATAACAATTTCACA (double strand) [G3+LacZ]
- binding result ([1]; 10x-100x cold against labeled G3+4, poor competitor, label: none (competitor)): binds more weakly

Sequence: CAAAGAGCGACACGTGAACAGGTGCAGTAGTAAATATAAGCAAAGAGAGTTGGAAAGAGTATTGGCTAAGAGCGTCCGCTCACTAACACATAGATAAATTAAGAGAGACGTGATAAGAGAACCGCACGCACACC (double strand) [G3+4 (GAGA3+4)]
- binding result ([2]; relative to G3 and G4 65 bp probes (higher affinity), binding and competition, label: 5'-32P (unlabeled as competitor)): binds
- binding result ([1]; 10x-100x cold G3+4 against labeled G3+4, label: 5'-32P (unlabeled as competitor)): binds
- binding result [1, 4]: binds

Sequence: CAGACGACGTCGCAGGTGAGTGGCGAGCAGAGCAGCATGGAGCGAGCATGGCCGCTGTGGAATACCGCACTGTCGTAGGCACGAGCGCGAGCTTTTTAGGCCAAGAGCACGTTTTTTTTCACATCCATGATGGCTGCCGCTGTCTCGCCTCTTCTTCTTCATTTTCAGCTCGGCCATCATGGGGCTCCATTAAATCCACT (double strand) [HS3mGAF]
- binding result ([2]; LBC shift abrogated, label: 5'-32P (unlabeled as competitor)): no binding
- binding result ([1]; 25x-100x cold against labeled HS3, poor competitor, label: 5'-32P (unlabeled as competitor)): binds more weakly

Sequence: ATTGGCTAAGAGCGTCCGCTCACTAACACATAGATAAATTAAGAGAGACGTGATAAGAGAACCGC (double strand) [G4 (GAGA4)]
- binding result [2, 5]: binds more weakly

Sequence: CAGACGACGTCGCAGGTGAGTGGCGAGCAGAGCAGCATGGAGCGAGCCGTACCGCTGTGGAATACCGCACTGTCGTAGGCACGAGCGCGAGCGAGAGAGGCCAAGAGCACGCTCTCTTTCACATCCATGCGTACTGCCGCTGTCTCGCCTCTTCTTCTTCATTTTCAGCTCGGTACGCATGGGGCTCCATTAAATCCACT (double strand) [HS3mPho]
- binding result ([2]; Pho mutations have no effect, label: 5'-32P (unlabeled as competitor)): binds
- binding result ([1]; 25x-100x cold against labeled HS3, competes as well as wild type, label: 5'-32P (unlabeled as competitor)): binds

Sequence: CAAAGAGCGACACGTGAACAGGTGCAGTAGTAAATATAAGCAAAGAGAGTTGGAAAGAGTATTGG (double strand) [G3 (GAGA3)]
- binding result [2, 5]: binds more weakly

Sequence: CAAAGAGCGACACGTGAACAGGTGCAGTAGTAAATATAAGCAAAGAGAGTTGGAAAGAGTATTGGCTAAGAGCGTCCGCTCACTAACACATAGATAAATTAAGAGAGACGTGATAAGAGAACCGCACGCACACCACCGCAAAATCCAATTGGAAGAGAGCGACTGCTTGAGTGTATTGGTTAGCAAGAGAGCGGCTAAGGTTTGATGGTTTGATTGGAATTCAGTTGCCGTTCG (double strand) [dHS1]
- binding result ([2]; label: 5'-32P): binds

Sequence: GTGGAATACCGCACTGTCGTAGGCACGAGCGCGAGCGAGAGAGGCCAAGAGCACGCTCTCTTTCACATCCATGATGGCTGCCGCTGTCTCGCCTCTTCTT (double strand) [HS3 probe #2]
- binding result ([2]; slow shift resembling LBC, identity confirmed only with 200 bp HS3, label: 5'-32P): binds

Sequence: ACAATTGCCAAATAATACAGATCGATTTAGAGCGAGATGACAATAGAGAGGCGATCTCTCTCGTATACGAGTCTTGAAAAGAAAGAGAAGGCGAACGGTGCTGGCTTAGAGAGAGATGGCAATACTAATTAACTGCAAATACATTTCCGCCATTTTGTTGGCGCTAAAAGTAACGGAAATTCGAGATGCTTTTAGGGCTG (double strand) [CES roX2]
- binding result ([1]; 25x-100x cold against labeled HS3, label: none (competitor)): binds

Sequence: CAGACGACGTCGCAGGTGAGTGGCGAGCAGAGCAGCATGGAGCGAGCATGGCCGCTGTGGAATACCGCACTGTCGTAGGCACGAGCGCGAGCGAGAGAGGCCAAGAGCACGCTCTCTTTCACATCCATGATGGCTGCCGCTGTCTCGCCTCTTCTTCTTCATTTTCAGCTCGGCCATCATGGGGCTCCATTAAATCCACT (double strand) [HS3]
- binding result ([2]; label: 5'-32P (unlabeled as competitor)): binds
- binding result [3]: binds
- binding result [1, 4]: binds

Sequence: ACCCTCTATCACCGTGAACAGGTGCAGTAGTAAATATAAGCAAAACAAATTGGAAAGAGTATTGGCTAAGAGCGACCGCTCACTAACACATAGATAAATTAAACAAAACGTGATAAGAGAACCGCACGCACACCACCGCAAAATCCAATTGGAAACAAACGACTGCTTGAATGTATTGGTAAGCAAACAAACGGCTAGGTTTGATGGTTTGATTGGAATTCAGTTGCCGTTCG (double strand) [dHS1 GAGAmut3-6]
- binding result ([2]; binding largely abrogated, label: 5'-32P): binds more weakly
